Laboratory results from US9884813B1, “Pharmaceutically acceptable salts of B-guanidinopropionic acid with improved properties and uses thereof” (Rgenix, Inc., priority 2017, dated 2018).
Some entries share one result that the patent states for a list of compounds. At least one structure is not confirmed: it was looked up by name or label, or the drawing left a doubt.

Assay: Dynamic vapor sorption (DVS) with XRPD of the post-DVS sample
Type: physicochemical
Procedure: Samples were analyzed using an Aquadyne DVS-2 gravimetric water sorption analyzer. The relative humidity was adjusted between 2-95% and the weight of the sample was continuously monitored and recorded.
[…]: β-GPA maleate (1:1) Form II, β-GPA fumarate (1:1), β-GPA maleate (2:1), β-GPA succinate (2:1) and β-GPA oxalate (1:1) were analyzed by DVS experiment followed by XRPD analysis of the sample at the end of the experiment.
Sample 2162-64-1 was analyzed by DVS in triplicate and the post DVS samples were characterized by XRPD to identify the form at the end of the experiment.

Q: Which “moisture uptake during the DVS experiment” value (listed as 1:1 fumarate salt) does the source give for `N=C(N)NCCC(=O)O.O=C(O)/C=C/C(=O)O` [β-GPA fumarate (1:1)] here?
A: less than 1%

Q: Which “moisture uptake during the DVS experiment” value (listed as 1:1 oxalate salt) does the source give for `N=C(N)NCCC(=O)O.O=C(O)C(=O)O` [β-GPA oxalate (1:1)] here?
A: less than 1%

Q: And the “moisture uptake during the DVS experiment” value (listed as 1:1 β-GPA oxalate)?
A: < 0.5%
